Data as given in PubChem BioAssay AID1259297 (Sanger Institute, 2017).
Purpose: 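Kinases whose loss kills cells on their own or with targeted drugs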 (primary screen). System: human RCM1 colorectal cancer cell line. Reagent: siRNA pool against human genes. Conditions: separate arms: DMSO vehicle, or one anchor drug at a mild dose: BYL719 1 µM, cetuximab 5 µg/ml, trametinib 10 nM. Measured: 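Viability per well relative to a non-targeting pool, mean of replicates; robust z-score for knock-down alone; synergy score with BYL719, cetuximab or trametinib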. Direction: viability z-score, knock-down alone: higher = more viable cells than non-targeting controls. Call rule: 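Called essential if knock-down without drug gives a viability robust z-score under -3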. Meaning of the calls: active = essential when knocked down alone; inactive = no clear loss of viability alone.
Shown is one part, drawn at random, of 794 reagents tested. In the full data, 13 (1.6%) are marked active. 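Calls reflect knock-down without drug only; drug synergy is judged separately, with scores above 0.15 counted as synergy.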 Reagents against one gene are numbered here. Not all columns of the deposit are shown. Not stated in the record: the amount of reagent, the time to read-out.

Which result is listed for POMK?
viability z-score, knock-down alone: 0.9; Outcome: inactive

What is on record for CDK5R2?
viability z-score, knock-down alone: 0.9; Outcome: inactive

For CAMK2G, what does the deposit list?
viability z-score, knock-down alone: -1.4; Outcome: inactive

For PLK4, how do the results read?
viability z-score, knock-down alone: -1.09; Outcome: inactive

With PDPK1, how do the results read?
viability z-score, knock-down alone: -0.307; Outcome: inactive

What did the screen give for NEK11?
viability z-score, knock-down alone: -2.47; Outcome: inactive

For PHKG1, what does the deposit list?
viability z-score, knock-down alone: -1.18; Outcome: inactive

What is on record for RUNX1?
viability z-score, knock-down alone: -1.34; Outcome: inactive

For TGFBR3, how do the results read?
viability z-score, knock-down alone: -0.278; Outcome: inactive

Which result is listed for BPTF?
viability z-score, knock-down alone: -1.3; Outcome: inactive

Which result is listed for ADK?
viability z-score, knock-down alone: -1.59; Outcome: inactive

Which result is listed for EIF2AK3?
viability z-score, knock-down alone: 0.251; Outcome: inactive

Entries listed so far whose target name starts with C or c (2):
CDK5R2: viability z-score, knock-down alone = 0.9; Outcome = inactive
CAMK2G: viability z-score, knock-down alone = -1.4; Outcome = inactive

Continued.
Which result is listed for KRAS?
viability z-score, knock-down alone: -3.64; Outcome: active

Which result is listed for NEK8?
viability z-score, knock-down alone: -0.436; Outcome: inactive

How did the screen score MAP3K14?
viability z-score, knock-down alone: -0.687; Outcome: inactive

With CALM2, what does the deposit list?
viability z-score, knock-down alone: -1.22; Outcome: inactive

What did the screen give for ILK #1?
viability z-score, knock-down alone: 0.789; Outcome: inactive

With ILK #2, what does the deposit list?
viability z-score, knock-down alone: -0.179; Outcome: inactive

With PLK2, what does the deposit list?
viability z-score, knock-down alone: 0.498; Outcome: inactive

With WNK4, what was measured?
viability z-score, knock-down alone: 0.9; Outcome: inactive

What did the screen give for KDR?
viability z-score, knock-down alone: -0.376; Outcome: inactive

With OXSR1, how do the results read?
viability z-score, knock-down alone: 0.623; Outcome: inactive

How did the screen score STK31?
viability z-score, knock-down alone: 0.33; Outcome: inactive

What did the screen give for JAK1?
viability z-score, knock-down alone: 0.21; Outcome: inactive

What did the screen give for XYLB?
viability z-score, knock-down alone: 0.44; Outcome: inactive

Which result is listed for SYNCRIP?
viability z-score, knock-down alone: -0.292; Outcome: inactive

How did the screen score KCNH2?
viability z-score, knock-down alone: -0.236; Outcome: inactive

For GRK1, what was measured?
viability z-score, knock-down alone: 0.9; Outcome: inactive
